From article PMC10085685
No constants are given. Whether binding was seen depends on the method and setting. Binding calls can cover weak binding; strength is not graded here. Sequences can lack the tags named with a protein. Values belong to the molecule of their own block, whether it stands above or below them.

Tests used:
Assay in all cases: two-hybrid; Gal4-based system (Clontech), haploid strains AH109 and Y187 mated to a diploid strain; pGADT7-GW / PACT2 AD and pGBKT7(-GW) fusions
[1] = target: T1, AtFANCE, yeast two-hybrid fusion (Arabidopsis thaliana) (UniProt Q9SU89)
T1 sequence: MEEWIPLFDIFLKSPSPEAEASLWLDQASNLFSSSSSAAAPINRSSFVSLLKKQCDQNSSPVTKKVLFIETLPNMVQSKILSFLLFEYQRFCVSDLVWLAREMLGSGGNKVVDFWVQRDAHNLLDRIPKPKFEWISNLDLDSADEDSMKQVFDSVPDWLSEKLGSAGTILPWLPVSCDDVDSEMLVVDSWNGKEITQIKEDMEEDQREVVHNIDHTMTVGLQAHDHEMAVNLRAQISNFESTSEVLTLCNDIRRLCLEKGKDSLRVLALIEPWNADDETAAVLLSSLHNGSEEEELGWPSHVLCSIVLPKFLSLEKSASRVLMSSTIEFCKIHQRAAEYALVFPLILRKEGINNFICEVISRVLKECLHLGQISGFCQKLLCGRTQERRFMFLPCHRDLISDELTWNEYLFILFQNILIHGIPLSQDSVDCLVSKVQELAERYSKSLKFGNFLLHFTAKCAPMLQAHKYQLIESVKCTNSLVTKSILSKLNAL

[2] = target: T2, AtMHF2, yeast two-hybrid fusion (Arabidopsis thaliana) (UniProt Q8L7N3)
T2 sequence: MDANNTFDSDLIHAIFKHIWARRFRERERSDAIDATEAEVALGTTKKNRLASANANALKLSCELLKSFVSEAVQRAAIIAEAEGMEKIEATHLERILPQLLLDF

[3] = target: AtFANCF, yeast two-hybrid fusion (Arabidopsis thaliana) (UniProt F4K7F0)

binding [1]: binds
binding [2]: binds
Molecule: AtFANCC (At3g60310), yeast two-hybrid fusion (Arabidopsis thaliana)

binding [2]: binds
Molecule: AtFANCF, yeast two-hybrid fusion (from UniProt F4K7F0)

binding [3]: binds
B1: AtFANCE, yeast two-hybrid fusion (protein, UniProt Q9SU89 1-493)
chain: T1 sequence
